The values that follow come from US20030040614.

Series [1] has as its target T1, Eco57I D78K T862N (UniProt P25239).
T1 sequence (looked up, limits assumed): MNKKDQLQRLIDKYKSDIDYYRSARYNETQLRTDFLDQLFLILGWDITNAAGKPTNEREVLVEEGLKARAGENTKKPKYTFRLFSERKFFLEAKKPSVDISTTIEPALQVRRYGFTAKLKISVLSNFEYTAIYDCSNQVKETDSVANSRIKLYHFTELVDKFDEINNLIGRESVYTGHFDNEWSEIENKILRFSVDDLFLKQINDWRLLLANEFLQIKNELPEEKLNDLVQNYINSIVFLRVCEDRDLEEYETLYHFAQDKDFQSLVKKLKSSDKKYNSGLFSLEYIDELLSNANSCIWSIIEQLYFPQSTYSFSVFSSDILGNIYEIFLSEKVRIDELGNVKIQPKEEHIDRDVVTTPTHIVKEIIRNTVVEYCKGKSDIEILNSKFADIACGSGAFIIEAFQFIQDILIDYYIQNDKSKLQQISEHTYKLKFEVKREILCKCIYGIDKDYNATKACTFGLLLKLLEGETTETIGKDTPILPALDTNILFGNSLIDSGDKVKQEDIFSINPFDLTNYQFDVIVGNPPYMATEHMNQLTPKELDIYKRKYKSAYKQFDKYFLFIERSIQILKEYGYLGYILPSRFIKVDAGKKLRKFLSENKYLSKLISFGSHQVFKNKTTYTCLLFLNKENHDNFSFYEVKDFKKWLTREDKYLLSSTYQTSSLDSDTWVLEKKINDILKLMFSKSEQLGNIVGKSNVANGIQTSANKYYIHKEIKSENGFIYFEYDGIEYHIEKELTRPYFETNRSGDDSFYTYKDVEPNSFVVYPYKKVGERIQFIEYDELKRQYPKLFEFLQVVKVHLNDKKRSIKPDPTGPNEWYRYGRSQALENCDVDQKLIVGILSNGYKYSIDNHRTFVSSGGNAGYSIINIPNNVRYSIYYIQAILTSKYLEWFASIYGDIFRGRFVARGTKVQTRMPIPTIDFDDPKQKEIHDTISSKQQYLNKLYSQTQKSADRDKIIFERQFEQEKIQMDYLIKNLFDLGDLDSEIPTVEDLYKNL
The series can be described thus: activity assay. Conditions: methylation of top strand, B+ buffer, 30 uM AdoMet, 37 C 3 h, purified recombinant protein, protein details: untagged, expressed from pET21b.

Series [2] has as its target T2, Eco57I T862N (UniProt P25239).
T2 sequence (looked up, limits assumed): T1 sequence (looked up, limits assumed) with K78D
The series is described as follows: activity assay. As to conditions: methylation of top strand, B+ buffer, 30 uM AdoMet, 37 C 3 h, purified recombinant protein, protein details: untagged, expressed from pET21b.

For series [3], the target named is T3, Eco57I restriction endonuclease (wild type) (UniProt P25239).
T3 sequence (looked up, limits assumed): T1 sequence (looked up, limits assumed) with K78D, N862T
The series can be described thus: activity assay. As to conditions: methylation of top strand; bottom strand 406; B+ buffer, 30 uM AdoMet, 37 C 3 h; purified native protein; protein details: MBI Fermentas.

In series [4] the target is T4, Eco57I D78K (UniProt P25239).
T4 sequence (looked up, limits assumed): T1 sequence (looked up, limits assumed) with N862T
The series can be described thus: activity in cells. Conditions: protein in cells, protein details: expressed from pET21b, only the site is given.

Series [5] addresses T2, Eco57I T862N. The series can be described thus: enzyme reaction in vitro. Conditions: Mg2+, purified recombinant protein, protein details: untagged, expressed from pET21b, label: 33P, only the site is given.

Residue numbers refer to the chain shown, from its start. Tags and fusion partners may be left off the protein sequences shown. For at least one entry, the source does not settle the construct or the ends of the probe. For part of these data: A negative result means that nothing was seen under these conditions.

Turning to “AGTTCTGAAGCATCGTTCACCGGTTACAAC / TGGTTGTAACCGGTAACGGATGCTTCAGAACTTCTC [duplex #2 Eco57I site]”, the activity on this sequence (3H radioactivity (units not stated)) turned out to be 10200 in series [1] (bottom strand 278), 17900 in series [2] (bottom strand 198) and 21800 in series [3]. “AGTTCTGGAGCATCGTTCACCGGTTACAAC / TGGTTGTAACCGGTAACGGATGCTCCAGAACTTCTC [duplex #1 GsuI site]”: the activity on this sequence (3H radioactivity (units not stated)) was 32200 in series [1] (bottom strand 920, variant of duplex #2 Eco57I site) and 30600 in series [2] (bottom strand 980, variant of duplex #2 Eco57I site). For the sequence “CTGAAG (double strand) [Eco57I recognition site in plasmid]”, the “activity on this sequence” value in series [4] (plasmid protected from Eco57I cleavage by methylation) was “active”. “CTGGAG (double strand) [GsuI recognition site in plasmid]”: the “activity on this sequence” value in series [4] (plasmid remains sensitive to GsuI, site not methylated) was “not active”. With “TAATAGACTGGATGGAGGCGCTGGAGCCGGTGAGCGTGGGTC (double strand) [pACYC177 GsuI site region (position 454)]”, in series [5] (cleaves 16/14 nt from CTGGAG), the “activity on this sequence” value was “active”. “TCCCTTTTTTGCGGCATTTTGCTGAAGATCAGTTGGGTGCACGA (double strand) [pACYC177 Eco57I site region (position 3798)]”: the “activity on this sequence” value in series [5] (cleaves 16 or 17 / 14 or 15 nt from CTGAAG) is given as “active”.
